# Measurements: PubChem BioAssay AID493014 (National Center for Advancing Translational Sciences (NCATS), 2011)
# Out of some 340,000 compounds screened, about 170 (0.05%) were called active. Inconclusive means that the source gave no clear call. Such entries were picked first, then a sample of the others. The call rests on the fitted dose curve; in most records, active means well fitted inhibition curve with a large enough effect in the signal ratio, with a control signal flat (not every such curve was filed as active); inconclusive means small, poorly fitted or top-dose-only effect, or effect the other way, or a change in a side signal; inactive means flat fitted curve, though single readings scatter; the % refers to the signal ratio. Potencies beside an inconclusive call are fits to weak or partial responses and may not hold up.
# Assay: qHTS Assay to Find Inhibitors of Chronic Active B-Cell Receptor Signaling;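 on activity change, negative = inhibition: plate controls were basal doxycycline-induced cells for no effect and cells given 10 µM MG132 for full effect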
# Settings: ABC-DLBCL IkBa-CBG/CBR reporter, luminescence ratio (green luciferase fused to IkBa over red control in TMD8 lymphoma cells), 4 h; activity change, negative = inhibition: at 46.1 µM (top of the series)
# Procedure, shortened: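 TMD8 ABC-DLBCL cells carrying doxycycline-inducible green luciferase fused to IkappaBalpha plus unfused red luciferase were exposed to compounds (up to 46 uM) for 4 hrs at 37C. Activity came from the overlap-corrected green/red luminescence ratio.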
# Potency means the concentration at half of the fitted maximal effect.
Structure (SMILES),Potency,"activity change, negative = inhibition"
CC(C)(C)n1cnc2cc(NC(=O)c3ccco3)ccc21,"inconclusive: 14.1 µM [falling, single point]",–
CC(C)c1nccn1S(=O)(=O)c1cc(Cl)ccc1Cl,–,inconclusive: 11.5%
CCC(O)CNC(=O)NC(=C(Cl)Cl)c1ccc(C)c(F)c1 (stereo not given),–,inactive: -20.7%
COc1ccc(Nc2nnc(SCC(=O)Nc3cc(C)on3)s2)cc1,–,inconclusive: -14.9%
CCOc1ccc2nc(SC3CC(=O)N(c4ccccc4)C3=O)sc2c1 (stereo not given),"inconclusive: 11.2 µM [falling, partial curve, poor fit]",–
CCCc1ccc(-c2csc(NC(=O)C3=COCCO3)n2)cc1,–,inconclusive: 6.11%
COc1cccc(NC(=O)CCc2ccccc2)c1,"inconclusive: 20.6 µM [falling, single point]",–
O=C(Nc1ccc2oc(=O)ccc2c1)c1ccco1,"inconclusive: 35.5 µM [falling, partial curve, poor fit]",–
COc1ccc(C)cc1NC(=O)CN(Cc1nnc(-c2ccc(Cl)cc2)o1)C1CCCC1,–,inconclusive: -1.07%
COc1ccc(Cl)cc1S(=O)(=O)NC(C)C(=O)NCc1ccccn1 (stereo not given),–,inconclusive: -4.52%
O=C(Nc1ccccc1C(=O)N1CCN(Cc2ccccc2)CC1)c1ccccc1,–,inactive: 0.354%
Cc1onc(-c2ccccc2)c1C(=O)NNC(=S)NC(=O)c1ccc2c(c1)OCO2,"inconclusive: 20 µM [falling, single point]",–
CCn1c(CN(C)c2ccccc2)nc2ccccc21,–,inactive: 0.24%
Cc1nn(-c2ccccn2)c2c1C(=O)CC(C)(C)C2Br (stereo not given),–,inactive: 15.3%
CC(C)(C)c1cc(Cl)ccc1OCCn1ccnc1,–,inactive: -1.82%
O=C(CSc1ncccn1)NC(=O)Nc1ccc2c(c1)OCCO2,"inconclusive: 10 µM [falling, partial curve, poor fit]",–
Cc1ccc(C(=O)NCCN2C3=NC[C@H](C)N3C[C@H]2Cc2ccc(O)cc2)cc1Br,"inconclusive: 35.5 µM [falling, partial curve, poor fit]",–
C#CCOCCOCCOCCNc1nc(N2CCN(C(=O)CCCCCCCCCCNC(=O)[C@H](CCCCN)n3cc(C[C@@H](C)CC)nn3)CC2)nc(N2CCN(C(=O)CCCCCCCCCCNC(=O)[C@@H]([C@H](C)O)n3cc(C)nn3)CC2)n1,–,inconclusive: 7.04%
Oc1ccc2ccccc2c1C=Nc1ccc(N2CCOCC2)cc1,–,inconclusive: -24.8%
O=C(NCC(c1ccco1)N1CCN(c2ccccc2)CC1)OCc1ccccc1 (stereo not given),–,inconclusive: 3.97%
COc1cc(/C=N/NC(=O)[C@H](Cc2c[nH]c3ccccc23)NC(=O)OCC(C)C)cc([N+](=O)[O-])c1O,–,inconclusive: -0.0875%
O=C1NC(=Nc2cccc(O)c2)S/C1=C\c1cccnc1,"inconclusive: 20 µM [falling, single point]",–
Cc1cc(C)cc(N(CC(=O)N2CC=C(c3ccccc3)CC2)S(=O)(=O)c2c(C)noc2C)c1,–,inconclusive: 29.4%
COC(=O)c1c(C(=O)OC)c(-c2ccc(C)cc2)n2c1CCC2,–,inactive: 5.76%
CN(C(=S)NC(=O)c1ccc(Cl)cc1)C1CCCCC1,"inconclusive: 28.2 µM [falling, single point]",–
CN(C)c1ccc(/C=N\NC(=O)c2cccc3cc[nH]c23)cc1,"inconclusive: 25.1 µM [rising, partial curve]",–
O=C(COC(=O)c1ccc(O)cc1O)Nc1ccc2ccccc2c1,–,inconclusive: -2.48%

Structure (SMILES),Potency,"activity change, negative = inhibition"
Cc1noc(C)c1C(=O)NCCC1=CCCCC1,"inconclusive: 23.1 µM [falling, single point]",–
O=C(N/N=C/c1ccc2c(c1)OCO2)c1cc(-c2ccc(F)cc2)nc2ccccc12,–,inactive: 0.0182%
COc1cccc(N2CCN(C(=O)c3ccc4ccccc4c3)CC2)c1,"inconclusive: 16.4 µM [falling, single point]",–
O=C(Oc1cccc([N+](=O)[O-])c1)c1ccc2c(=O)n3c(nc2c1)CCC3,–,inactive: -2.03%
Cc1cccc(C(=O)OCC(=O)c2ccc3c(c2)OCCO3)c1O,–,inconclusive: -0.807%
Cc1c(C(=O)O)c2cc(O)ccc2n1-c1ccccc1,–,inconclusive: 20%
Cc1nc2ccc(NC(=O)C3CCCCC3)cc2s1,"inconclusive: 9.2 µM [falling, partial curve, poor fit]",–
Cc1ccc(COc2cccc3c2CCN(Cc2ccc(F)cc2)C3=O)cc1,–,inconclusive: -18.9%
CCC(=O)Nc1ccc(Nc2nc(C)c([N+](=O)[O-])c(Nc3ccc(NC(=O)CC)cc3)n2)cc1,–,inconclusive: 10.3%
COc1ccc(-c2onc(C)c2-c2cscn2)c(O)c1,–,inconclusive: 6.31%
O=C(COc1ccc(Cl)cc1[N+](=O)[O-])NC1CCCCC1,–,inconclusive: -6.57%
CCC(=O)NC(c1cccs1)c1ccc2cccnc2c1O (stereo not given),–,inactive: -16.1%
c1ccc2c(-c3cn4ccccc4n3)c[nH]c2c1,–,inconclusive: -5.85%
O=C(Cc1ccccc1)Nc1ccc(N2CCCC2)cc1,–,inactive: 0.736%
CCCn1c(CN2CCN(C(=O)OCC)CC2)nc2cc(NC(=O)C(C)C)ccc21,–,inactive: -4.03%
CCCc1[nH]nc2c1C(c1ccsc1)C(C#N)=C(N)O2 (stereo not given),"inconclusive: 22.4 µM [falling, single point]",–
COc1ccccc1CN=c1c([N+](=O)[O-])nn(-c2ccc3c(c2)OCCO3)n1O,–,inactive: -2.1%
CCN(CC(=O)Nc1ccc(NC(C)=O)cc1)C(=O)c1cccc(S(=O)(=O)N2CCCC2)c1,–,inconclusive: -0.426%
COc1ccccc1C(=O)NCC(=O)N1CC=C(c2ccccc2)CC1,–,inconclusive: -0.156%
CCn1cc(C(=O)N(C)CC(OC)OC)c(=O)c2cc(S(=O)(=O)N3CCOCC3)ccc21,–,inactive: 2.42%
COC(=O)C1=NN(C(=O)c2ccc(Cl)cc2)C(O)(c2ccccc2)C1 (stereo not given),"inconclusive: 28.2 µM [falling, partial curve]",–
COc1cccc(Oc2ccc(C(F)(F)F)cc2N)c1,–,inconclusive: 16.6%
CCOc1cc(C(=O)Nc2cc(C)on2)cc(OCC)c1OCC,–,inconclusive: 3.88%
CNC(=S)N1N=C(c2ccc(C)cc2)CC1c1ccc(Br)cc1 (stereo not given),"inconclusive: 9.2 µM [rising, partial curve]",–
O=C1CCN(Cc2ccc([N+](=O)[O-])cc2)CCN1[C@H](CO)Cc1ccccc1,–,inconclusive: -11.6%
O=C(Cn1cnc2cc([N+](=O)[O-])ccc2c1=O)Nc1ccc2c(c1)CCC2,–,inconclusive: -4.4%
Cc1ccc(-c2csc3nc[nH]c(=S)c23)cc1,–,inconclusive: -26.4%

# An excerpt from above in order of heavy-atom count, rising:
Structure (SMILES),Potency,"activity change, negative = inhibition"
O=C(COc1ccc(Cl)cc1[N+](=O)[O-])NC1CCCCC1,–,inconclusive: -6.57%
COc1ccc(Nc2nnc(SCC(=O)Nc3cc(C)on3)s2)cc1,–,inconclusive: -14.9%
Cc1onc(-c2ccccc2)c1C(=O)NNC(=S)NC(=O)c1ccc2c(c1)OCO2,"inconclusive: 20 µM [falling, single point]",–

# (more compounds)

Structure (SMILES),Potency,"activity change, negative = inhibition"
COc1cc2c(cc1OC)C(/C=C/c1ccco1)=NCC2,"inconclusive: 35.5 µM [falling, single point]",–
O=c1[nH]c(NCCO)nc2ncn(Cc3ccccc3)c12,–,inconclusive: 5.08%
Cc1cc(=O)oc2cc(OCC(=O)N3CCOCC3)ccc12,–,inconclusive: -11%
O=C(Nc1nnc(C2COc3ccccc3O2)o1)c1ccc(F)cc1 (stereo not given),"inconclusive: 23.1 µM [falling, single point]",–
COc1ccc(OC)c(/C=N/NC(=O)c2csc3ccccc23)c1,–,inconclusive: -28.2%
CSc1ccc(C(=O)C2CCCN(C(=O)c3nonc3C)C2)cc1 (stereo not given),–,inconclusive: -1.18%
CCCCNC(=O)CCCCn1c(=S)[nH]c2c([nH]c3ccc(OC)cc32)c1=O,–,inactive: -1.5%
CC12CCC(CC1=O)C2(C)C (stereo not given),–,inconclusive: 9.29%
COc1ccc(C(=O)/C=C2\Sc3ccccc3N2C)cc1,–,inconclusive: -2.02%
CCCC(=O)Nc1cccc(NC(=O)c2ccc3c(c2)OCO3)c1,"inconclusive: 7.31 µM [falling, partial curve]",–
CC(C)(C)c1ccc(OCCC(=O)OCC(=O)NC2CCCCC2)cc1,–,inactive: -14%
C=COc1ccc(N2C(=O)c3ccccc3OC2C)cc1 (stereo not given),–,inconclusive: 4.41%
COc1ccccc1NC(=O)C(=O)N(c1cccnc1)C(C(=O)NC(C)(C)C)c1ccccc1F (stereo not given),–,inconclusive: 15.6%
O=C(COC(=O)c1ccccc1C(=O)c1ccccc1)Nc1ccc(SC(F)F)cc1,–,inconclusive: -5.4%
C[C@H](NC(=O)c1cc2c([nH]c3ccccc32)c(-c2ccccc2)n1)C(=O)O,–,inconclusive: -4.65%
O=C(Nc1nc(-c2cccs2)cs1)c1ccc([N+](=O)[O-])o1,–,inactive: -0.662%
OCCC1CN(Cc2ccc3ncccc3c2)CCN1Cc1ccccc1 (stereo not given),–,inconclusive: 8.96%
O=C(Nc1cccc2nsnc12)c1ccc2c(c1)OCO2,"inconclusive: 12.6 µM [falling, single point]",–
Cc1ccc2sc(NC(=O)CSc3nc(C)cc(C)c3C#N)nc2c1,–,inactive: -5.39%
c1ccc(CNc2nc(N3CCN(Cc4ccccc4)CC3)nc3ccccc23)cc1,–,inconclusive: 4.27%
CC1(c2ccccc2)NC(=O)N(CC(=O)Nc2ccc([N+](=O)[O-])cc2)C1=O (stereo not given),–,inactive: 2.69%
O=C1C2CCCN2C(c2ccccc2)N1c1nccs1 (stereo not given),–,inconclusive: 5.01%
Cc1occc1C(=O)Nc1sc2c(c1C(N)=O)CCC(C(C)(C)C)C2 (stereo not given),"inconclusive: 23.1 µM [falling, single point]",–
O=c1oc2ccccc2c2oc3cc(O)c(O)cc3c12,"inconclusive: 0.0316 µM [rising, full curve, poor fit]",–
COc1cccc2c1OCC/C2=N\NC(=O)COc1ccc(C)cc1,–,inconclusive: 1.41%
O=C(/C=C/c1ccc(Cl)cc1Cl)Nc1cccc(S(=O)(=O)NC2=NCCC2)c1,"inconclusive: 20 µM [falling, partial curve]",–
